Earlier results in patent US9784730B2, “Nanoparticle for targeting brain tumors and delivery of O6-benzylguanine” (University of Washington through its Center for …, priority 2013, dated 2017).
At least one structure is not confirmed: it was looked up by name or label, or the drawing left a doubt.

System: glioblastoma multiforme
Settings: GBM patients, post-operative radiochemotherapy; from 12 without TMZ; cited from earlier work

Q: With `Cn1nnc2c(C(N)=O)ncn2c1=O` [TMZ, temozolomide] as the compound, how does the Median survival read?
A: Its Median survival is 15 months.
